Data taken from paper PMC5069676.

Protein sequences, listed by entry. Tags and fused reporters are not part of them.
UniProt P12004: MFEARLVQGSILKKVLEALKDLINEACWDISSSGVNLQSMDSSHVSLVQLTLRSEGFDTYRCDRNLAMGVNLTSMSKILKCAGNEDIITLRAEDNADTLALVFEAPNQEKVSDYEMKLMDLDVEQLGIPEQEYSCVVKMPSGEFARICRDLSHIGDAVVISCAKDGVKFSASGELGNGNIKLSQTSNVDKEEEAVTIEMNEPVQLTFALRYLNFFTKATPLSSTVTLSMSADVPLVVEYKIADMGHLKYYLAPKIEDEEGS
UniProt P14618: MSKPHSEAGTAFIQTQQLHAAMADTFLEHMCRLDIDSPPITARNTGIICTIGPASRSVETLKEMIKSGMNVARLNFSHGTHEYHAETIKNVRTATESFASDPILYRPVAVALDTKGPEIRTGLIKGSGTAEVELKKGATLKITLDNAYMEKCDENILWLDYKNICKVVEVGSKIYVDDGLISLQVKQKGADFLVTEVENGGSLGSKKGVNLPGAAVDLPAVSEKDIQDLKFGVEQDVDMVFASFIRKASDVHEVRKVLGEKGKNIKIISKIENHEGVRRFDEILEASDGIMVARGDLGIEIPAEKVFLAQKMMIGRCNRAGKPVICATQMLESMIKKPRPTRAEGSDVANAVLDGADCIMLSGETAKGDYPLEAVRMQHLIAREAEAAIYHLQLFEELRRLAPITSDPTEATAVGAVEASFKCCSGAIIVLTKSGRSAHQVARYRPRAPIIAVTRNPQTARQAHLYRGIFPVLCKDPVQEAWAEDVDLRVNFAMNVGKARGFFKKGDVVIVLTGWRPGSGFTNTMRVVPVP
UniProt P43490: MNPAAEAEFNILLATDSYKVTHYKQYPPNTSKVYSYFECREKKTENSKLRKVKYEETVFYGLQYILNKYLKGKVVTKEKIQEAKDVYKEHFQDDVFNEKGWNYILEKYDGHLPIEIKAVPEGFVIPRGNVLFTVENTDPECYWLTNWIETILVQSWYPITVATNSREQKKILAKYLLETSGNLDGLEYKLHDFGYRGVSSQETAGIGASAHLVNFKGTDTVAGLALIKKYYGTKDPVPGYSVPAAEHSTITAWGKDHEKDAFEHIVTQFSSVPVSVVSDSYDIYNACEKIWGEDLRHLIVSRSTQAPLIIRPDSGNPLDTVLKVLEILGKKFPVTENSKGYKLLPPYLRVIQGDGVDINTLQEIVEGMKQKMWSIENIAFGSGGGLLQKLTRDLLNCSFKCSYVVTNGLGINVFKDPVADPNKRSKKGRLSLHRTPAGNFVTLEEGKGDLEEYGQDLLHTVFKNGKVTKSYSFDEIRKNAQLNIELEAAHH

What was measured:
[1] = molecular target: endogenous cytosolic PCNA of HL-60 cells (human (endogenous in HL-60)) (UniProt P12004); assay: condition: only in daunorubicin-resistant HL-60R cells; affinity purification with mass spectrometry; co-immunoprecipitation of endogenous PCNA from the cytosolic fraction of daunorubicin-resistant HL-60R cells; partners identified by mass spectrometry (details in Supplementary Methods)
[2] = molecular target: endogenous cytosolic PCNA of HL-60 cells (human (endogenous in HL-60)) (UniProt P12004); assay: affinity purification with mass spectrometry; co-immunoprecipitation of endogenous PCNA from the cytosolic fraction of HL-60S cells; partners identified by mass spectrometry (details in Supplementary Methods)
[3] = molecular target: endogenous cytosolic PCNA of HL-60 cells (human (endogenous in HL-60)) (UniProt P12004); assay: affinity purification with mass spectrometry; co-immunoprecipitation of endogenous PCNA from the cytosolic fraction of daunorubicin-resistant HL-60R cells; partners identified by mass spectrometry (details in Supplementary Methods)

For “pyruvate kinase PKM2 (from UniProt P14618 1-531) (enzyme)”, the binding [1] was “no binding” and the binding [2] was “binds”.
In the case of “endogenous nicotinamide phosphoribosyltransferase (NAMPT) of HL-60 cells (from UniProt P43490 1-491) (enzyme)”, the binding [3] is reported as “binds”.

No constants are given. Whether binding was seen depends on the method and setting. Binding seen in cells or lysates may run through a third protein. Here binding means that the protein was enriched with, or labelled near, the bait; the list need not be complete. For part of these data: A no says only that the protein was not detected with the bait.
